13 compounds from patent US20140142343A1, “Novel Fragrance Compounds” (Givaudan Nederland Services B.V., priority 2006, published 2014) can be followed below.

Data set [1] can be described thus: Odour description of the prepared compound. As to conditions: odour description of the isolated product.
Data set [2] in a line: Malodour counteracting, small-scale tabletop method with trained sensory panel. As to conditions: 1% w/w in DPG; bathroom malodour at 0.5%.
The nature of data set [3]: Performance in candle wax: odour intensity in cold wax and burn mode. To be noted: candle wax dosed at 1.0%, ingredients as 10% dilutions in benzyl benzoate; for COLD WAX MODE: before burning; for BURN MODE: burned for one hour.
Data set [4] is described as follows: Performance on hair: muguet odour intensity from Pantene shampoo on hair switches. To be noted: scale 0 to 10, Lily aldehyde=5, Pantene shampoo dosed at 0.2%, Compound 1 and Florhydral as 10% DPG; for FOAMING INTENSITY MEAN: after 30 s massage into hair; for DRY INTENSITY MEAN: hair line dried 3 hours; for DAMP INTENSITY MEAN: rinsed, towel dried hair.
Data set [5] is described as follows: Addition of the compound to perfuming compositions.

Turning to `CC(C)(C)C1CCCC(CCC=O)C1` (single isomer, unassigned; isomer 3) [Pure TRANS-Isomer, 3-(3-tert-butylcyclohexyl)propanal], in data set [1], the Odour entry was “aldehydic, floral, metallic”.
`CC(C=O)CC1CCCC(C)C1` (stereo not shown) [Compound 3, 2-methyl-3-(3-methylcyclohexyl)propanal]: the “perceived intensity of malodour” value in data set [2] is “significantly reduced the perceived intensity of malodour”. Also, the Odour result in data set [1] is on record as “floral, citrus, cuminic, nitrile”.
Turning to `CC(C)c1cccc(C(C)CC=O)c1` (stereo not shown) [FLORHYDRAL, 3-(3-isopropylphenyl)butanal], in data set [3], the “COLD WAX MODE” value is given as “Not as strong as Compound 1. Still a” and the “BURN MODE” value is on record as “Not as strong as Compound 1”. Besides, in data set [4], the “FOAMING INTENSITY MEAN” value is recorded as 5, the “DRY INTENSITY MEAN” value is reported as 4 and the “DAMP INTENSITY MEAN” value turned out to be 6.
Regarding `CC(C=O)Cc1ccc(C(C)(C)C)cc1` (stereo not shown) [LILY ALDEHYDE], in data set [3], the “COLD WAX MODE” value is recorded as “Faint odour character,” and the “BURN MODE” value is “Not strong. Does not compare”. Further, in data set [4], the “FOAMING INTENSITY MEAN” value is 5, the “DRY INTENSITY MEAN” value turned out to be 5 and the “DAMP INTENSITY MEAN” value was 5.
As for `CC1CCCC(CCC=O)C1` (stereo not shown) [Compound 4, 3-(3-methylcyclohexyl)propanal], the “perceived intensity of malodour” value in data set [2] was “significantly reduced the perceived intensity of malodour”. Besides, the Odour entry in data set [1] is given as “aldehydic, fatty, nitrile”.
With `CC(C)C1CCCC(C(C)CC=O)C1` (stereo not shown) [Compound 2, 3-(3-isopropylcyclohexyl)butanal], in data set [1], the Odour entry is “green, violet, orris, aldehydic”.
The same measure, in the same setting: to `CC(C)(C)C1CCCC(CCC=O)C1` (single isomer, unassigned; isomer 3) [Pure CIS-Isomer, 3-(3-tert-butylcyclohexyl)propanal] belongs “aldehydic, floral, muguet, watery”.
For the compound `CC(C)(O)CCCC1=CCC(C=O)CC1` (stereo not shown) [LYRAL], in data set [3], the “COLD WAX MODE” value is given as “Faint odour character in cold mode” and the “BURN MODE” value is listed as “Very weak in burn”.
`CC1CCCC(CC(C)(C)C=O)C1` (stereo not shown) [Example 8, 2,2-dimethyl-3-(3-methylcyclohexyl)propanal]: the Odour result in data set [1] is given as “marine, watery”.
Still for that read-out and setting: to `CC1CCCC(C(C)CC=O)C1` (stereo not shown) [Example 3, 3-(3-methylcyclohexyl)butanal] belongs “aldehydic, green, muguet”.
With `CC(C)C1CCCC(C(C)C(C)C=O)C1` (stereo not shown) [Example 5, 3-(3-isopropylcyclohexyl)-2-methylbutanal], the Odour entry in data set [1] was “green, violet, apple, cucumber”.
On to `CC(CC=O)C1CCCC(C(C)(C)C)C1` (stereo not shown) [Example 6, 3-(3-tert-butylcyclohexyl)butanal], for which the Odour result in data set [1] is reported as “aldehydic, floral, herbal, watery”.
As for `CC(C)(C)C1CCCC(CCC=O)C1` (stereo not shown) [Compound 1, 3-(3-tert-butylcyclohexyl)propanal], in data set [3], the “COLD WAX MODE” value is given as “Very strong in cold wax, excellent” and the “BURN MODE” value was “VERY strong, excellent performer”. Moreover, the “effect on perfuming composition for water based gel air freshener” value in data set [5] (0.25% of compound instead of equivalent amount of Dihydro Myrcenol) is given as “enhanced the perceived odour intensity of the fragrance”. For the same compound, the “effect on perfuming composition for general purpose cleaner” value in data set [5] (0.50% of compound instead of equivalent amount of Linalol) is recorded as “enhanced the perceived odour intensity of the fragrance”. Also, in data set [4], the “FOAMING INTENSITY MEAN” value is 9, the “DRY INTENSITY MEAN” value turned out to be 8 and the “DAMP INTENSITY MEAN” value amounted to 8. The Odour result in data set [1] is reported as “aldehydic, floral, muguet, green”.
